PubChem BioAssay AID2685 (National Center for Advancing Translational Sciences (NCATS), 2010)
Screen size: about 320,000 compounds; about 2,100 (0.66%) were called active. Inconclusive means that the source gave no clear call. Such entries were picked first, then a sample of the others. The call rests on the fitted dose curve; in most records, active means well fitted inhibition curve with a large enough effect in the signal ratio, with a control signal flat (not every such curve was filed as active); inconclusive means small, poorly fitted or top-dose-only effect, or effect the other way, or a change in a side signal; inactive means flat fitted curve, though single readings scatter; the % refers to the signal ratio. Potencies beside an inconclusive call are fits to weak or partial responses and may not hold up.

test: qHTS Assay for Lipid Storage Modulators in Drosophila S3 Cells; details: BODIPY lipid droplet fluorescence, 18-24 h, cells fed with added oleic acid; lipid storage change, negative = inhibition: at 46.1 µM (top of the series) unless noted
Outline: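 Drosophila S3 cells got compounds at several concentrations plus oleic acid (400 uM solution). Laser-scanning cytometry with 488 nm excitation read lipid droplets at 500-530 nm and cells at 575-640 nm. Percent activity was relative to 20 uM Triacsin C.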
On the % scale 0 is the no-effect control and ±100 the full control effect; potency means the concentration at half of the fitted maximal effect.

SMILES | Potency | lipid storage change, negative = inhibition | outcome
CC(C(=O)N(C)C1CCS(=O)(=O)C1)N1C(=O)/C(=C/c2ccco2)SC1=S (stereo not given) | inconclusive: 0.651 µM [falling, full curve] |  | 
CC1(C)CC(=O)C2=C(C1)N(Cc1ccc(F)cc1)C(=O)C2(NC(=O)c1cccnc1)C(F)(F)F (stereo not given) |  | inconclusive: 1.43% | 
CCCCNCC#CCOc1cc(C)ccc1C(C)C |  | inconclusive: 19.7% | 
CCCn1c(N)c(N2CCCCC2)c(=O)n(CC(=O)Nc2ccc(OC(F)(F)F)cc2)c1=O |  | inconclusive: 19.1% | 
CN1CCN(c2ccccc2NC(=O)c2ccccc2F)CC1 |  | inconclusive: 31.9% | 
CC(C)C(NC(=O)COc1ccccc1)C(=O)O (stereo not given) | active: 32.6 µM |  | 
O=C(NCc1ccccc1)c1c(O)c2ccccc2[nH]c1=O | inconclusive: 7.31 µM [activator, partial curve] |  | 
Cc1ccc(N2C(=S)NC3c4cc(Cl)ccc4OC2(C)C3C(=O)N(C)C)cc1 (stereo not given) |  | inconclusive: -8.49% | 
CN(c1ccc(OCC(=O)NCCc2ccccc2)cc1)S(=O)(=O)c1ccc(Cl)cc1 |  | inconclusive: 42.5% | 
Cc1ccc(C2C(C#N)=C(N)OC3=C2C(=O)CC(C)(C)C3)s1 (stereo not given) |  | inconclusive: -24.9% | 
O=C(CSc1nc2ccccc2[nH]1)N=Nc1c(O)[nH]c2ccccc12 |  | inconclusive: -28.5% | 
COC(=O)c1ccc(OC(=O)c2ccco2)cc1 |  | inconclusive: -2.04% | 
CCN(CC)CCCn1c(=S)[nH]c2cc(C(=O)OC)ccc2c1=O | active: 3.66 µM |  | 
COc1ccc2oc(C(=O)N3CCN(C(=O)c4ccco4)CC3)c(C)c2c1 | inconclusive: 29.1 µM [falling, single point] |  | 
C=CCc1c(C)nc(SCc2ccccc2)[nH]c1=O |  | inconclusive: 31.5% | 
CCCCC(CC)CN=C(N)NC(N)=NCCCCCCN=C(N)NC(N)=NCC(CC)CCCC (stereo not given) | inconclusive: 7.31 µM [cytotoxic, partial curve] |  | 
Cc1cc(C(=O)O)cc(S(=O)(=O)NNC(=O)c2cccs2)c1C |  | inconclusive: 11.7% | 
CC1(C)CN(c2ccccc2)N(Cc2ccc(F)cc2)C1=O |  | inconclusive: 9.43% | 
CC1(C)CN=C(N2CCN(C3=NCC(C)(C)S3)CC2)S1 |  | inconclusive: 54.4% | 
Cn1nc(C(=O)Nc2nc(-c3ccccn3)cs2)c2ccccc2c1=O |  |  | inactive [at 46.1 µM]

Look-ups from the entries so far:
Value for CN1CCN(c2ccccc2NC(=O)c2ccccc2F)CC1 under lipid storage change, negative = inhibition: inconclusive: 31.9%
Value for CC1(C)CN(c2ccccc2)N(Cc2ccc(F)cc2)C1=O under lipid storage change, negative = inhibition: inconclusive: 9.43%

Remaining list, next part

SMILES | Potency | lipid storage change, negative = inhibition | outcome
COC(=O)[C@@H](NC(=O)NCc1cccc(OC)c1)C(C)C |  | inactive: 10.7% | 
Cc1ccc(-n2c3nc(=O)[nH]c(=O)c-3cc3c(C)nn(-c4ccccc4)c32)c(C)c1 |  | inconclusive: 20.5% | 
CCN(CC)C(=O)Cn1c(=O)n(CCCC(=O)NCc2ccc3c(c2)OCO3)c(=O)c2sccc21 |  | inconclusive: -29.4% | 
O=C(/C=C/c1ccc(Cl)cc1)NCc1ccncc1 |  | inconclusive: 62.6% | 
Clc1ccc(Cn2c(-c3cccnc3Cl)nc3ccccc32)cc1 |  | inconclusive: 8.28% | 
O=C(c1cn(-c2ccccc2)nc1-c1ccccc1)n1nnc2ccccc21 |  | inconclusive: 115% | 
S=C(NCCc1ccc(Cl)cc1)NC1CC1 |  | inconclusive: 15.4% | 
Cc1onc(-c2ccccc2)c1C(=O)Nc1ccncc1 |  |  | inactive [at 46.1 µM]
CC1(C)Cc2c(cnn2-c2ccc(F)cc2)C(NC(=O)CCCN2CCCCC2=O)C1 (stereo not given) | inconclusive: 29.1 µM [falling, single point] |  | 
Cc1ccc(NC(=O)c2cc(S(=O)(=O)N3CCOCC3)cn2C)cc1F |  | inconclusive: -20% | 
Cc1ccnc(SCC(=O)c2cccs2)n1 |  | inconclusive: 22.3% | 
C/C(CC(=O)Nc1ccc([N+](=O)[O-])cc1)=N/NC(=O)C1CC12CCC2 (stereo not given) |  | inconclusive: -9.25% | 
CCOC(=O)[C@H]1[C@H]2COc3cc(OC)ccc3[C@@H]2N2C(=O)N(c3ccc(Cl)cc3)C(=O)[C@@]12C | inconclusive: 20.6 µM [activator, single point] |  | 
CN(C)/C(=N\S(=O)(=O)c1ccccc1)c1ccc(F)cc1 |  | inconclusive: -19.5% | 
Cc1cc([N+](=O)[O-])nn1CCCC(=O)Nc1sc2c(c1C(N)=O)CCC(C)C2 (stereo not given) |  | inconclusive: 32.3% | 
Cc1ccc2nc(SCCC#N)nc(C)c2c1 |  | inconclusive: 79.3% | 
CC(C)Cn1c(N)c(C(=O)COC(=O)c2cc(-c3ccccc3)nc3ccccc23)c(=O)n(C)c1=O | inconclusive: 2.06 µM [activator, full curve] |  | 
O=C(COc1ncnc2sccc12)Nc1ccc2c(c1)OCCO2 | inconclusive: 11.6 µM [activator, partial curve] |  | 
N#CCC(=O)Nc1ccc(C(=O)OCC(=O)NC(=O)Cc2ccccc2)cc1 |  | inconclusive | 
C/C(CC(=O)Nc1cccc(Cl)c1)=N\NC(=O)Cc1ccc(Cl)cc1 |  | inconclusive: -5.83% | 
